Some of these results come from one statement about several compounds together.
assay: Thermal stability of hydrogel (sinking of stainless ball); type: physicochemical; conditions: hydrogel of 1% (w/v) peptide; 10 min at temperatures between 35° C. and 95° C.
Procedure: After mounting the stainless ball on the hydrogel prepared, they were moved to a thermostatic device, and were left to stand for 10 min at various temperatures between 35° C. and 95° C. Whether gel collapse had occurred was determined by judging the sinking of the stainless ball.

Question: With “CCC(POG)6PRG(POG)5CCC (CCCPPGPPGPPGPPGPPGPPGPRGPPGPPGPPGPPGPPGCCC; hydroxyproline; MOD_RES (5)..(5) 4-Hydroxyproline; MOD_RES (8)..(8) 4-Hydroxyproline; MOD_RES (11)..(11) 4-Hydroxyproline; MOD_RES (14)..(14) 4-Hydroxyproline; MOD_RES (17)..(17) 4-Hydroxyproline; MOD_RES (20)..(20) 4-Hydroxyproline; MOD_RES (26)..(26) 4-Hydroxyproline; MOD_RES (29)..(29) 4-Hydroxyproline; MOD_RES (32)..(32) 4-Hydroxyproline; MOD_RES (35)..(35) 4-Hydroxyproline; MOD_RES (38)..(38) 4-Hydroxyprolin) [CCC2]” as the substance, how does the “temperature at which the stainless ball starts to sink (gel collapse)” value (“temperature” below) read?
Answer: higher than 95 °C

Question: With “CCCC(POG)6PRG(POG)5CCGC (CCCCPPGPPGPPGPPGPPGPPGPRGPPGPPGPPGPPGPPGCCCC; hydroxyproline; MOD_RES (6)..(6) 4-Hydroxyproline; MOD_RES (9)..(9) 4-Hydroxyproline; MOD_RES (12)..(12) 4-Hydroxyproline; MOD_RES (15)..(15) 4-Hydroxyproline; MOD_RES (18)..(18) 4-Hydroxyproline; MOD_RES (21)..(21) 4-Hydroxyproline; MOD_RES (27)..(27) 4-Hydroxyproline; MOD_RES (30)..(30) 4-Hydroxyproline; MOD_RES (33)..(33) 4-Hydroxyproline; MOD_RES (36)..(36) 4-Hydroxyproline; MOD_RES (39)..(39) 4-Hydroxyprolin) [CCCC2]” as the substance, how does the “temperature” value read?
Answer: higher than 95 °C

Question: For “YCC(POG)6PRG(POG)5CCY (YCCPPGPPGPPGPPGPPGPPGPRGPPGPPGPPGPPGPPGCCY; hydroxyproline; MOD_RES (5)..(5) 4-Hydroxyproline; MOD_RES (8)..(8) 4-Hydroxyproline; MOD_RES (11)..(11) 4-Hydroxyproline; MOD_RES (14)..(14) 4-Hydroxyproline; MOD_RES (17)..(17) 4-Hydroxyproline; MOD_RES (20)..(20) 4-Hydroxyproline; MOD_RES (26)..(26) 4-Hydroxyproline; MOD_RES (29)..(29) 4-Hydroxyproline; MOD_RES (32)..(32) 4-Hydroxyproline; MOD_RES (35)..(35) 4-Hydroxyproline; MOD_RES (38)..(38) 4-Hydroxyprolin) [YCC2]”, which “temperature” value is on record?
Answer: higher than 95 °C

— US10851152B2, “Polymerized peptide and gel having collagen-like structure” (WASEDA UNIVERSITY, priority 2015, dated 2020)
